Values quoted from earlier work, collected in patent US11529304B2, “Method for dyeing keratin material by means of a dyeing agent and an acidic posttreatment agent” (Henkel AG & Co. KGaA, priority 2018, dated 2022).

Details: 25° C.

solubility in water: more than 20 % by weight
SMILES: CCN(Cc1cccc(S(=O)(=O)[O-])c1)c1ccc(C(=C2C=CC(=[N+](CC)Cc3cccc(S(=O)(=O)[O-])c3)C=C2)c2ccccc2S(=O)(=O)[O-])cc1.[Na+].[Na+] [Acid Blue 9]
